The values that follow come from article PMC13002332.

These are yes or no findings as the source states them, for the method shown. Binding seen in cells or lysates may run through a third protein. A yes stands for co-enrichment or nearness to the bait. Other partners may have been found. Sequences can lack the tags named with a protein.

The assay has as its target T1, Cilia- and flagella-associated protein 77 (CFAP77), endogenous in mouse testis (mouse (endogenous in testis)).
T1 sequence: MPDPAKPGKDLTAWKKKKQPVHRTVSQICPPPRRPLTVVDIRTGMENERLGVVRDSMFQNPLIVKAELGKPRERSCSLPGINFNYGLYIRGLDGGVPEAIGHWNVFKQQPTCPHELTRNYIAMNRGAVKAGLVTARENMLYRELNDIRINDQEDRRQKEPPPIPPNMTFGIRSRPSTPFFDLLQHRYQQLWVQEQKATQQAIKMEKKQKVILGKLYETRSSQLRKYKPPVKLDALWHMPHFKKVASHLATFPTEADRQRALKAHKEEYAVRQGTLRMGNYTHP
Nature of the assay: affinity purification with mass spectrometry; immunoprecipitation with an anti-CFAP77 antibody on Dynabeads from mouse testis lysates, LC-MS/MS; Cfap77 KO testes with the same beads and antibody as negative control.

B1: LGALS8, endogenous in mouse testis (protein, UniProt Q9JL15 1-316)
chain: MLSLNNLQNIIYNPIIPYVGTITEQLKPGSLIVIRGHVPKDSERFQVDFQLGNSLKPRADVAFHFNPRFKRSSCIVCNTLTQEKWGWEEITYDMPFRKEKSFEIVFMVLKNKFQVAVNGRHVLLYAHRISPEQIDTVGIYGKVNIHSIGFRFSSDLQSMETSALGLTQINRENIQKPGKLQLSLPFEARLNASMGPGRTVVIKGEVNTNARSFNVDLVAGKTRDIALHLNPRLNVKAFVRNSFLQDAWGEEERNITCFPFSSGMYFEMIIYCDVREFKVAINGVHSLEYKHRFKDLSSIDTLSVDGDIRLLDVRSW
Take B1: the binding entry is recorded as “binds”.

B2: SPMIP8, endogenous in mouse testis (protein, UniProt Q6IMH0 1-216)
chain: MAQIIDLVPWDECSAHLYASPAVLLPLERVRHPLAGVKHQLYHPALPSLRRMDMDTVKGCLSDEHCQSSTYFSKDDFNKAHFTLLGVPNKPLQCLDFTATGQKLCHKYRGGKMIPIAPGINRVDWPCFTRAIEDWSKFVSRSEEFKLPCANKRVEGFSGYAVRYLKPEVTQNWRYCLNQNPSLDRYGQKPLPFDSLNAFRRFGSHYSRINYLTPWH
Turning to B2, the binding entry was “binds”.
